Laboratory results as given in PubChem BioAssay AID1688 (National Center for Advancing Translational Sciences (NCATS), 2009).
Out of some 220,000 compounds screened, about 2,400 (1.1%) were called active. Inconclusive means that the source gave no clear call. Such entries were picked first, then a sample of the others. Calls follow the shape of the dose curve; as a rule, active = well fitted inhibition curve with a large enough effect; inconclusive = small, poorly fitted or top-dose-only effect, or effect the other way; inactive = no such curve, though single readings can be large or run the other way. Potencies of inconclusive entries are doubtful fits and often do not repeat.

Test: qHTS Multiplex Assay to Identify Dual Action Probes in a Cell Model of Huntington: Aggregate Formation (GFP); also: nearly all actives have a fitted effect of over 60% in size
Details: PC12 HttQ103-GFP aggregates, Acumen cytometry, 40 h; activity change, negative = inhibition: at 46.1 µM (top of the series) unless noted
Method in brief: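 Inducible Q103 Huntingtin exon 1–GFP PC12 line, 1500 cells/well in phenol red free DMEM with 5% equine and 5% calf serum. Tebufenozide 100 nM induced expression; compounds titrated; aggregates quantified by cytometry.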
% is scaled to controls: 0 for no effect and ±100 for the full control effect; potency is read from the fitted curve at half-maximal effect.

Compound | Potency | activity change, negative = inhibition
O=C(Nc1nc2ccc([N+](=O)[O-])cc2s1)c1ccc(S(=O)(=O)N2CCCc3ccccc32)cc1 | inconclusive: 5.62 µM [inhibitor, single point] | –
Cc1ccc(OCc2nnc(SCC(=O)c3ccccc3)n2Cc2ccco2)cc1 | – | inactive: -15.3%
Cc1nc2ncnn2c(C)c1CCC(=O)Oc1ccccc1 | – | inactive: 7.33%
O=C(N/N=C/c1ccc(O)c2ncccc12)c1cccc(Br)c1 | inconclusive: 3.55 µM [inhibitor, single point] | –
c1cc(-c2nnc3sc(C4CCCCC4)nn23)ccn1 | active: 12.6 µM | –
COc1ccc(-c2noc(CCC(=O)NCCCN3CCC(Cc4ccccc4)CC3)n2)cc1 | inconclusive: 0.501 µM [activator, full curve, poor fit] | –
CSCCC(NS(=O)(=O)c1ccc(Cl)cc1)C(=O)OCC(=O)NC12CC3CC(CC(C3)C1)C2 (stereo not drawn) | inconclusive: 3.16 µM [activator, single point] | –
Cc1csc(SC(C)C(=O)Nc2ccc(Cl)cn2)n1 (stereo not drawn) | – | inactive: 12%
Cn1ncc(C#N)c1/N=C/N1CCCCCC1 | inconclusive: 12.6 µM [inhibitor, partial curve] | –
CCN(CC)Cc1c(O)c(Cl)cc2c3c(c(=O)oc12)CCCC3 | – | inactive: 16.1%
COc1cc2ccccc2cc1C(=O)NCC(c1cccs1)N(C)C (stereo not drawn) | inconclusive: 35.5 µM [inhibitor, single point] | –
CCCCn1c(SCc2ncc(-c3ccccc3)o2)nc2cc(S(N)(=O)=O)ccc21 | inconclusive: 25.1 µM [inhibitor, partial curve] | –
Cc1nn(Cc2c(F)c(F)c(F)c(F)c2F)c(C)c1NC(=O)c1ccc(COc2ccc(Cl)cc2Cl)o1 | inconclusive: 35.5 µM [inhibitor, single point] | –
Cc1ccc(S(=O)(=O)Cn2nnnc2C(C(C)C)N2CCSCC2)cc1 (stereo not drawn) | – | inactive: -14.1%
CC(=O)c1cccc(N=c2scc(-c3ccc(S(=O)(=O)N4CCOCC4)cc3)n2CCO)c1 | inconclusive: 35.5 µM [inhibitor, single point] | –
Cc1ccc(Cn2cccc2/C=N/NC(=S)Nc2ccc(C)cc2)cc1 | – | inactive: -8.4%
CCOC(=O)Cc1csc(NC(=O)c2sc3nc4c(C)cc(C)cc4cc3c2N)n1 | inconclusive: 35.5 µM [inhibitor, single point] | –
O=C(CSc1nc2ccccc2s1)NC1CCCC1 | – | inactive: 7.24% [at 9.22 µM]
COc1cccc(/C=N/NC(=O)c2c(-c3ccccc3)noc2C)c1O | inconclusive: 3.16 µM [inhibitor, full curve] | –
Cc1[nH]c2ccccc2c1C(=O)COC(=O)C1CCC(=O)N1 (stereo not drawn) | inconclusive: 0.0025 µM [inhibitor, full curve, poor fit] | –
COc1ccccc1N1CCN(Cc2ccc(O)c3ncccc23)CC1 | active: 1.12 µM | –
COc1ccc(C2C(C(C)=O)=C(O)C(=O)N2CCN(C)C)cc1OC (stereo not drawn) | – | inactive: 5.79%
CS(=O)(=O)Nc1ccccc1C(=O)Nc1cccc(Cl)c1 | active: 11.2 µM | –
CCN(CC)c1nc(-c2ccccn2)nc(-c2ccccc2)c1C#N | active: 5.01 µM | –
Cc1ccc([N+](=O)[O-])cc1NC(=O)Cc1cccs1 | – | inactive: 14.8%

Compound | Potency | activity change, negative = inhibition
O=C(Nc1nc2c(Cl)cccc2s1)c1ccc(Br)o1 | – | inactive: -4.65%
CCOc1cc(/C=C2\C(=O)ON=C2C)ccc1OCc1ccccc1 | inconclusive: 11.2 µM [inhibitor, partial curve, poor fit] | –
Cc1[nH]c2ccccc2c1C(=O)CSc1nc2ccccc2c(=O)n1CCCN1CCOCC1 | inconclusive: 5.62 µM [activator, single point] | –
CCC(C(=O)NCCN1CCN(C)CC1)n1c(C)c2cnn(-c3ccccc3)c(=O)c2c1C (stereo not drawn) | – | inactive: 6.72%
O=C(Nc1cccc(Cl)c1)N1CCN2C(=O)c3ccccc3C12c1ccccc1 (stereo not drawn) | inconclusive: 35.5 µM [inhibitor, single point] | –
Cc1ccnc2nc(C(=O)Nc3ccc4c(c3)OCO4)nn12 | – | inactive: 3.98%
CCOC(=O)c1[nH]c(COC(=O)CCCOc2ccccc2)c(C(=O)OCC)c1C | – | inactive: -2.51%
CCCCCCCOC(=O)c1ccc(OC(=O)c2cccnc2)cc1 | – | inactive: -7.69% [at 1.84 µM]
CCn1c(C)nc2cc(C(=O)n3cc(C(=O)c4ccccc4O)cn3)ccc21 | – | inactive: 2%
CN(CC(=O)Nc1ccc(F)c(F)c1F)c1cnccn1 | inconclusive: 35.5 µM [inhibitor, single point] | –
COc1ccc(-c2csc(NC(=O)c3ccccc3NS(=O)(=O)c3ccc(F)c(F)c3)n2)cc1 | active: 2.51 µM | –
CCOc1ccc(S(=O)(=O)N/N=C2/CC(c3ccccc3)Oc3ccccc32)cc1 (stereo not drawn) | inconclusive: 35.5 µM [inhibitor, single point] | –
Nc1nc(Cl)cc(N2CCC(c3cc(-c4ccc(Cl)cc4)n[nH]3)CC2)n1 | inconclusive: 12.6 µM [inhibitor, partial curve] | –
C[C@H](NC(=O)c1nc[nH]c1C(=O)NC(c1ccccc1)c1ccccc1)C(=O)OC(C)(C)C | – | inactive: -13.6% [at 9.22 µM]
COc1ccc(N=Nc2ccc(N)nc2N)cc1 | – | inactive: 10.5% [at 9.22 µM]
CCOc1ccc(-c2[nH]ncc2-c2csc(C)n2)c(O)c1 | inconclusive: 5.62 µM [inhibitor, single point] | –
CC(C)OC(=O)c1cc(NC(=S)Nc2ccc([N+](=O)[O-])cc2)cc(C(=O)OC(C)C)c1 | inconclusive: 5.62 µM [inhibitor, single point] | –
CCN(C(=O)c1cnc(N2CCN(c3ncccn3)CC2)c2ccccc12)c1cccc(Cl)c1 | inconclusive: 25.1 µM [inhibitor, single point] | –
Cc1sc(NC(=O)COc2ccccc2)c(C#N)c1C | – | inactive: -9.29%
O=C(c1n[nH]c(=O)c2ccccc12)N1CCN(c2ccccc2Cl)CC1 | inconclusive: 12.6 µM [inhibitor, partial curve, poor fit] | –
Cc1sc2ncnc(N/N=C/c3cccc(O)c3)c2c1C | – | inactive: 27.3%
O=C(Nc1ccc2nc(-c3cccs3)[nH]c2c1)c1ccco1 | inconclusive: 12.6 µM [activator, single point] | –
Cc1nc2ncnn2c(N2CCCC(C(=O)Nc3ccc4c(c3)CCC4)C2)c1C (stereo not drawn) | active: 10 µM | –
O=C(c1cnn(C(=O)COc2ccccc2F)c1)c1cc(F)ccc1O | – | inactive: -30.7% [at 9.22 µM]
COc1ccc(CNC(=O)COC(=O)Cc2ccc(Cl)cc2Cl)cc1 | active: 0.562 µM | –

Compound | Potency | activity change, negative = inhibition
Cc1cc2c(C)c(C)c(=O)[nH]c2cc1N | inconclusive: 11.2 µM [activator, partial curve] | –
CN(Cc1ccccc1)C(=O)c1[nH]cnc1C(=O)N[C@@H](CCCCNC(=O)OC(C)(C)C)C(=O)OC(C)(C)C | – | inactive: 11% [at 9.22 µM]
CCCn1c(=N)n(CC(O)COc2cccc(C)c2)c2ccccc21 (stereo not drawn) | – | inactive: -6.75%
CCS(=O)(=O)c1ccc(O)c(NC(=O)c2cc(OC)c(OC)c(OC)c2)c1 | – | inactive: 7.66%
CCOc1ccc2nc(NC(=O)CSc3nc4cccnc4n3C)sc2c1 | inconclusive: 5.62 µM [activator, single point] | –
Cc1ccc(/C=C/C(=O)Nc2cccnc2)o1 | – | inactive: -6.59%
C=CCn1c(SCCC#N)nnc1-c1ccncc1 | inconclusive: 5.62 µM [inhibitor, single point] | –
CCCN(C(=O)C(=O)Nc1ccc2nc3n(c(=O)c2c1)CCCCC3)c1ccc(OCC)cc1 | inconclusive: 1.41 µM [activator, partial curve] | –
COC(=O)c1c(NC(=O)Cc2cccs2)sc2c1CCCC2 | inconclusive: 14.1 µM [inhibitor, partial curve] | –
Clc1ccc(C[n+]2cc(-c3ccccc3)n3c2CCCCC3)c(Cl)c1 | active: 11.2 µM | –
CC(C)(C)c1ccc(/C=C2\SC(=O)N=C2N)cc1 | inconclusive: 1.41 µM [activator, partial curve] | –
O=c1c2c(-c3ccccc3)csc2ncn1/N=C/c1c2ccccc2cc2ccccc12 | inconclusive: 0.562 µM [inhibitor, full curve, poor fit] | –
Clc1ccc(-c2nnc3n2CCCCC3)cc1 | inconclusive: 0.562 µM [activator, single point] | –
Cc1ccc(C(=O)NN2C(=O)C3C4c5ccccc5C(c5ccccc54)C3C2=O)cc1 (stereo not drawn) | inconclusive: 35.5 µM [activator, single point] | –
CC(C)C(=O)NNC(=O)c1csc(-c2cccs2)n1 | – | inactive: -16.7% [at 9.22 µM]
O=C(CCN1CCN(Cc2ccccc2)CC1)NNC(=O)Cc1ccc(Cl)c(Cl)c1 | inconclusive: 10 µM [activator, partial curve, poor fit] | –
c1cncc(-c2nnc3n2N=C(c2cccs2)CS3)c1 | inconclusive: 0.316 µM [inhibitor, full curve, poor fit] | –
O=C(NCc1ccc2c(c1)OCO2)c1ccc(CS(=O)(=O)c2ccc(Br)cc2)o1 | inconclusive: 12.6 µM [inhibitor, partial curve] | –
O=C(c1ccc(NS(=O)(=O)c2cccc3cccnc23)cc1)N1CCCCC1 | – | inactive: -15.4%
CCOC(=O)N1CCN(S(=O)(=O)c2ccc3c(c2)SC(C)C(=O)N3)CC1 (stereo not drawn) | inconclusive: 11.2 µM [inhibitor, partial curve] | –
CC(C)(C)Cc1nnc(NS(=O)(=O)c2ccccc2)s1 | – | inactive: -3.33% [at 9.22 µM]
O=C(O)CSc1nnc(SCc2cccc3ccccc23)s1 | – | inactive: 12.6%
Cc1cccc(N2CCN(C(=O)c3cc4n(n3)C(C(F)(F)F)CC(c3ccco3)N4)CC2)c1C (stereo not drawn) | inconclusive: 28.2 µM [inhibitor, single point] | –

In the list so far, these contain a tert-butyl group:
Compound | Potency | activity change, negative = inhibition
C[C@H](NC(=O)c1nc[nH]c1C(=O)NC(c1ccccc1)c1ccccc1)C(=O)OC(C)(C)C | – | inactive: -13.6% [at 9.22 µM]
CN(Cc1ccccc1)C(=O)c1[nH]cnc1C(=O)N[C@@H](CCCCNC(=O)OC(C)(C)C)C(=O)OC(C)(C)C | – | inactive: 11% [at 9.22 µM]
CC(C)(C)c1ccc(/C=C2\SC(=O)N=C2N)cc1 | inconclusive: 1.41 µM [activator, partial curve] | –
CC(C)(C)Cc1nnc(NS(=O)(=O)c2ccccc2)s1 | – | inactive: -3.33% [at 9.22 µM]
